Reference: article PMC7596570
These are yes or no findings as the source states them, for the method shown. In cells and extracts the contact can be indirect. Some entries that bind do so weakly or less than the wild type.

The chains behind the UniProt entries cited, without tags or fusion partners. Residues count along the entry.
UniProt O14763, residues 56-440: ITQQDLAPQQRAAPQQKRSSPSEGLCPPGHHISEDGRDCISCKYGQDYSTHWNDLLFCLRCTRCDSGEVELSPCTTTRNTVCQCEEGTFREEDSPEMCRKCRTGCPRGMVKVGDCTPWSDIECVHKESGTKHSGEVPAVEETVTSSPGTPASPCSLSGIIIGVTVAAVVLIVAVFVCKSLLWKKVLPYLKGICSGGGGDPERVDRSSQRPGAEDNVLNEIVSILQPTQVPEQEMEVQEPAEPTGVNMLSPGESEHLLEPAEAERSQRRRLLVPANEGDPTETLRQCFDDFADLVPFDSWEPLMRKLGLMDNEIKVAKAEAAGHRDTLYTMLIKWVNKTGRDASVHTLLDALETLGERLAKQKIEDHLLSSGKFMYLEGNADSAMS
UniProt Q13158: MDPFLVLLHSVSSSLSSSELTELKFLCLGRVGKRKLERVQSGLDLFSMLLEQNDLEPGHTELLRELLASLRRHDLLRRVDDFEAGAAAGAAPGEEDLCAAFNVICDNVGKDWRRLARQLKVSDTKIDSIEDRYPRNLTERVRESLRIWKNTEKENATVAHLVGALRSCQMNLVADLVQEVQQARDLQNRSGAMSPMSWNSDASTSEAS

Target: TRAIL Death Receptor 5 (DR5) (human (endogenous in HCT116)) (UniProt O14763)
Experiment: co-IP; DR5-DISC IP: AMG 655 (agonistic anti-DR5 antibody)-conjugated Dynabeads added to HCT116 cells (untransfected, or transfected with FLAG-RALB constructs, or SC/siRALB) for the indicated times (1 h, 3 h); lysis in 0.2% NP-40, 20 mM Tris, 150 mM NaCl, 10% glycerol, pH 7.4; beads captured magnetically, western blot

FADD (from UniProt Q13158 1-208) was tested, and the binding was “binds”.
